The target of the test is T1, PGC-1α, endogenous in mouse cells (mouse (endogenous in ovarian granulosa cells and in NIH/3T3)) (UniProt O70343).
T1 sequence: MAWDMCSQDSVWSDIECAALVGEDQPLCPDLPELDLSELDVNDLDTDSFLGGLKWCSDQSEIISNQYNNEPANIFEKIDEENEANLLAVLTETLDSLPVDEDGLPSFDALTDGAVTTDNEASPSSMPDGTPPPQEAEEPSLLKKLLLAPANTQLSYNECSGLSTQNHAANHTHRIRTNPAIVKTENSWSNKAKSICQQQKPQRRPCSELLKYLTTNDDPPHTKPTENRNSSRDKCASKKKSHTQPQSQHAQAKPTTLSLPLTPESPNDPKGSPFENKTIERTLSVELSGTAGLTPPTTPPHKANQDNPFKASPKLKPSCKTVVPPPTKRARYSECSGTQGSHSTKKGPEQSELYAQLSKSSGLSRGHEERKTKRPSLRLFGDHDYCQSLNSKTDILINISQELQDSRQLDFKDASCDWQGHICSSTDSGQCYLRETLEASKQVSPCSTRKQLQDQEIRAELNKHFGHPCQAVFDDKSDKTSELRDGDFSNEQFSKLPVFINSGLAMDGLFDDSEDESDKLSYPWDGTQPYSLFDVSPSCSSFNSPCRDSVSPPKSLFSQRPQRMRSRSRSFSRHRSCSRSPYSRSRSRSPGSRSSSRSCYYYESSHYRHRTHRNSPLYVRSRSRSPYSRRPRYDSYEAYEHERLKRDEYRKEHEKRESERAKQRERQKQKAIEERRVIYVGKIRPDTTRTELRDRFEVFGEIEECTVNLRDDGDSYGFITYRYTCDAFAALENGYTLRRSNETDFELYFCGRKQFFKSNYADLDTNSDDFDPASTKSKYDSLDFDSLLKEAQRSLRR
Nature of the test: affinity purification with mass spectrometry; IP with PGC-1α-specific antibodies from NIH/3T3 cells, HPLC-MS/MS.

These are yes or no findings as the source states them, for the method shown. Binding seen in cells or lysates may run through a third protein. A yes stands for co-enrichment or nearness to the bait. Other partners may have been found.

B1: ACAT1, endogenous in NIH/3T3 cells (enzyme, UniProt Q8QZT1 31-424)
chain: ASKPTLNEVVIVSAIRTPIGSFLGSLASQPATKLGTAAIQGAIEKAGIPKEEVKEVYMGNVIQGGEGQAPTRQATLGAGLPISTPCTTVNKVCASGMKAIMMASQSLMCGHQDVMVAGGMESMSNVPYVMSRGATPYGGVKLEDLIVKDGLTDVYNKIHMGNCAENTAKKMNISRQEQDTYALSSYTRSKEAWDAGKFASEITPITISVKGKPDVVVKEDEEYKRVDFSKVPKLKTVFQKENGTITAANASTLNDGAAALVLMTAEAAQRLNVKPLARIAAFADAAVDPIDFPLAPAYAVPKVLKYAGLKKEDIAMWEVNEAFSVVVLANIKMLEIDPQKVNIHGGAVSLGHPIGMSGARIVVHMAHALKPGEFGLASICNGGGGASALLIEKL
With B1, the binding result is reported as “binds”.

B2: DLAT, endogenous in NIH/3T3 cells (enzyme, UniProt Q8BMF4 86-642)
chain: SLPPHQKVPLPSLSPTMQAGTIARWEKKEGEKISEGDLIAEVETDKATVGFESLEECYMAKILVPEGTRDVPVGSIICITVEKPQDIEAFKNYTLDLAAAAAPQAAPAAAPAPAAAPAAPSASAPGSSYPTHMQIVLPALSPTMTMGTVQRWEKKVGEKLSEGDLLAEIETDKATIGFEVQEEGYLAKILVPEGTRDVPLGAPLCIIVEKQEDIAAFADYRPTEVTSLKPQAAPPAPPPVAAVPPTPQPVAPTPSAAPAGPKGRVFVSPLAKKLAAEKGIDLTQVKGTGPEGRIIKKDIDSFVPSKAAPAAAAAMAPPGPRVAPAPAGVFTDIPISNIRRVIAQRLMQSKQTIPHYYLSVDVNMGEVLLVRKELNKMLEGKGKISVNDFIIKASALACLKVPEANSSWMDTVIRQNHVVDVSVAVSTPAGLITPIVFNAHIKGLETIASDVVSLASKAREGKLQPHEFQGGTFTISNLGMFGIKNFSAIINPPQACILAIGASEDKLIPADNEKGFDVASVMSVTLSCDHRVVDGAVGAQWLAEFKKYLEKPITMLL
In the case of B2, the binding entry is reported as “binds”.

Values taken from article PMC12804605.
